Laboratory results as given in the supplement of paper PMC10849652.
The list shows a part of the results.

Amino acid sequences for entries named in this document (tags omitted). A change or cut given only in a name is not applied to a line headed by its entry.
UniProt Q96GY3: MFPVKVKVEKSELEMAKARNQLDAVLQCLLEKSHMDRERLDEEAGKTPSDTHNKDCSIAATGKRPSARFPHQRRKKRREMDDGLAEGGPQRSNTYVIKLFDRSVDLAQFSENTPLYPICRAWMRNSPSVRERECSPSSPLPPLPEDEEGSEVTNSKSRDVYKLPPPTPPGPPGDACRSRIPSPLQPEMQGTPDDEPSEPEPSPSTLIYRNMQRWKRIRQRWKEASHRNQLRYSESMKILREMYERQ
UniProt Q8TCA0: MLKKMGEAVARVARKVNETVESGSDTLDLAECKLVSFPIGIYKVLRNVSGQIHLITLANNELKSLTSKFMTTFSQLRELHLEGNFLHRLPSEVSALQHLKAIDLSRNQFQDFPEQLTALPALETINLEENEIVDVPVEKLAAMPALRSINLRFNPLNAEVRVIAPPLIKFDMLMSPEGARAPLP
UniProt Q86X29: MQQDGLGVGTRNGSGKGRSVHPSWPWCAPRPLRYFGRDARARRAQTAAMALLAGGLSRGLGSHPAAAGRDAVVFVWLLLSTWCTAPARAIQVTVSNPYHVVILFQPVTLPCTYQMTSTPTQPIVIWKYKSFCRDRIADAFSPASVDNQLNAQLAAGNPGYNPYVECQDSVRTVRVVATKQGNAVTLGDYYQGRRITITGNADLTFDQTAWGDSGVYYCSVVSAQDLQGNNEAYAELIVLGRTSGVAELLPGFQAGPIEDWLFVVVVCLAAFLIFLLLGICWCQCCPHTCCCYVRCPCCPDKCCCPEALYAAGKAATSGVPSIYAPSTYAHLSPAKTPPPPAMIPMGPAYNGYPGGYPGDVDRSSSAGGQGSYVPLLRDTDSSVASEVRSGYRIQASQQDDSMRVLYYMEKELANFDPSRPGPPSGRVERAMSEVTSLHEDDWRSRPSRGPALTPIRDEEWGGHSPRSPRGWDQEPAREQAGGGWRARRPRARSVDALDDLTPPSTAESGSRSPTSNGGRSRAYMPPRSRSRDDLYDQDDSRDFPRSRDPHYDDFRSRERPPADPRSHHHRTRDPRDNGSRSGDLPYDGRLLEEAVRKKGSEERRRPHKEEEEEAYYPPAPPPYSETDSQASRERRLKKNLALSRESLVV
UniProt Q9UIC8: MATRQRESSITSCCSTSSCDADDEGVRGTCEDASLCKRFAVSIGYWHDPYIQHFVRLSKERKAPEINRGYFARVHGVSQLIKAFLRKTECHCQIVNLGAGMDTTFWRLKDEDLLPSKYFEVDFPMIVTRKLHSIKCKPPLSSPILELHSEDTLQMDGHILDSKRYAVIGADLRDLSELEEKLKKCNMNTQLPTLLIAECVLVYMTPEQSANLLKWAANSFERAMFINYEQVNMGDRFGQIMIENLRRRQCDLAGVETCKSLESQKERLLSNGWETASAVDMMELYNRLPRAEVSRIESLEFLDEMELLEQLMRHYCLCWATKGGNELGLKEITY
UniProt Q9C0E8: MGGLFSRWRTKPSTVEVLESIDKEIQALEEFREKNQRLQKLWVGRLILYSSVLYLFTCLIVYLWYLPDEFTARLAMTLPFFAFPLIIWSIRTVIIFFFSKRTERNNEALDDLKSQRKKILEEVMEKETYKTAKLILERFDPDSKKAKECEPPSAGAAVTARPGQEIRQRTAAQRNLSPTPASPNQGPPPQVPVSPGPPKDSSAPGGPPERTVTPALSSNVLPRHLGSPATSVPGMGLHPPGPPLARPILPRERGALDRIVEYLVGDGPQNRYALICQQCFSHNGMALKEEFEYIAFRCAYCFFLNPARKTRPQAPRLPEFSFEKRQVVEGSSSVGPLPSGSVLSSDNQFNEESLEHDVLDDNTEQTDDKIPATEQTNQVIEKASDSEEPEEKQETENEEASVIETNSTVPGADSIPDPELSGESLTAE
UniProt P20700: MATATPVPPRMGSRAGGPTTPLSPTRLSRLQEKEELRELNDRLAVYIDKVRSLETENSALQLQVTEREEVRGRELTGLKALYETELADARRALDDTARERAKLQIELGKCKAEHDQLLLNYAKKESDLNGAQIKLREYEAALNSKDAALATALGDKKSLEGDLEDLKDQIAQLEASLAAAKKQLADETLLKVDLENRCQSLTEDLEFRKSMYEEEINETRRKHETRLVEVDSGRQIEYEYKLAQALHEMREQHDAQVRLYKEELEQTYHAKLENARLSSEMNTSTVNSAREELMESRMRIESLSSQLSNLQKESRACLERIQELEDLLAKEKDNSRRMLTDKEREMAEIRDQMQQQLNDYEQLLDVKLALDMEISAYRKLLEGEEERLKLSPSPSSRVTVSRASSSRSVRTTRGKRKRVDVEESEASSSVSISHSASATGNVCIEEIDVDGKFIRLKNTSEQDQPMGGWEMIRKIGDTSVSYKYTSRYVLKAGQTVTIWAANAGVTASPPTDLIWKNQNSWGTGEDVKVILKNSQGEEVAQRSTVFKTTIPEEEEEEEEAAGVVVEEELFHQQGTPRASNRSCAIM
UniProt Q96II8: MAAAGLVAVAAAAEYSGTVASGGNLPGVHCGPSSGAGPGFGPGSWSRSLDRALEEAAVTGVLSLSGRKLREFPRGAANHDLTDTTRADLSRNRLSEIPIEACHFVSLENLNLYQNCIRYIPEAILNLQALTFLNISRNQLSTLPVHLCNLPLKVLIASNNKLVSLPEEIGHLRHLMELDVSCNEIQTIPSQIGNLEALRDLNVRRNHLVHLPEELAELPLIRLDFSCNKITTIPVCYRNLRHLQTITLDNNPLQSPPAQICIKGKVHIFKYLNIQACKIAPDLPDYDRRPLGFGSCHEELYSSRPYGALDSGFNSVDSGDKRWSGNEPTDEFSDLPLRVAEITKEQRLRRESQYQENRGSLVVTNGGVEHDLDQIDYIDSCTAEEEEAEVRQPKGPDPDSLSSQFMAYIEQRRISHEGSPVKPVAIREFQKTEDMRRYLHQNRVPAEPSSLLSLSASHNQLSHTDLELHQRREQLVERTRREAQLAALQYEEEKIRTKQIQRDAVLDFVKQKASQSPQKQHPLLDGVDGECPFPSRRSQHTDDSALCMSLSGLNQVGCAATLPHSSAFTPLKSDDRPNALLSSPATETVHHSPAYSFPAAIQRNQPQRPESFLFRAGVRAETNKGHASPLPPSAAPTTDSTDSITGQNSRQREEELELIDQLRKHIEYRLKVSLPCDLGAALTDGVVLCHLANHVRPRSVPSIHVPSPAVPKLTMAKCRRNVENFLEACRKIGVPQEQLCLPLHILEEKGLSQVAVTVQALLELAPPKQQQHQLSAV
UniProt Q9H008: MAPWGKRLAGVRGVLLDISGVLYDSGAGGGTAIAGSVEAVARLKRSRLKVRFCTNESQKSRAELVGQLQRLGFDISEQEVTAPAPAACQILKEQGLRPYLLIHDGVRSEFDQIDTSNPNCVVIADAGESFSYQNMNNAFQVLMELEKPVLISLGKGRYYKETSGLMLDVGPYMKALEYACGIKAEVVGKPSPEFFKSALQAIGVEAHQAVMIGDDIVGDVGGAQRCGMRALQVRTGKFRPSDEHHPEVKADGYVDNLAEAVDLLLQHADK

Experiments:
Assay in all cases: log2 fold change, soluble protein after heating vs DMSO (PISA); higher = thermal stabilisation; K562 lysate, 10 uM; active = over 0.2 and 3.5 SD of the protein, either way, in both replicates (recomputed)
erlotinib = compound: C#Cc1cccc(Nc2ncnc3cc(OCCOC)c(OCCOC)cc23)c1 [erlotinib]
Procedure, shortened: (§1)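 Values give the log-two fold change in thermal stability against solvent controls, from duplicates. Crude K562 extract at 1 mg/mL protein, made by dounce homogenisation in PBS pH 7.4 with 1 mM MgCl2, was treated with 10 μM compound for 30 min. After 3 min heating across 48°C-58°C, aliquots were pooled, adjusted to 0.5% NP-40 at 4°C and centrifuged at 21,000xg for 90 min. The supernatant was measured by TMTpro 16plex LC-MS/MS with channel sums equalised.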

[1] = compound: C/C(=N\NC(=O)C1=CC(=CC=C1)S(=O)(=O)N2CCOCC2)/C3=C(C=CC(=C3)Cl)O
Procedure, shortened: as §1

[2] = compound: C1=CC(=CC=C1C2=NC3=C(N2)C=C(C=C3)C(=O)N)OC4=CC=C(C=C4)Cl
Procedure, shortened: as §1

[3] = compound: C1=CC2=C(C=CC(=C2)/C=C\3/C(=O)NC(=NCC4=CC=CS4)S3)N=C1
Procedure, shortened: as §1

[4] = compound: C1=CC2=NC=CN=C2C=C1/C=C/3\C(=O)NC(=O)S3
Procedure, shortened: as §1

[5] = compound: C1=CC=C(C=C1)C2=NC(=C(N2)C3=CC=NC=C3)C4=CC(=C(C=C4)Cl)O
Procedure, shortened: as §1

[6] = compound: C1=CC=C2C(=C1)C3=NNC4=CC=CC(=C43)C2=O
Procedure, shortened: as §1

[7] = compound: C1CCN(C1)C(=O)NC2=CC=CC(=C2)NC3=NC=C(C(=N3)NCCC4=CN=CN4)Br
Procedure, shortened: as §1

[8] = compound: C1CN(CCC1(CC2=CC=C(C=C2)Cl)N)C3=NC=NC4=C3C=CN4
Procedure, shortened: as §1

IRAK-1-4 Inhibitor I = compound: C1COCCN1CCN2C3=CC=CC=C3N=C2NC(=O)C4=CC(=CC=C4)[N+](=O)[O-] [IRAK-1-4 Inhibitor I]
Procedure, shortened: as §1

ibrutinib = compound: C=CC(=O)N1CCC[C@@H](n2nc(-c3ccc(Oc4ccccc4)cc3)c3c(N)ncnc32)C1 [ibrutinib]
Procedure, shortened: as §1

[9] = compound: CC(=O)c1cnc2ccc(-c3cc(Cl)c(O)c(Cl)c3)nc2c1N[C@H]1CC[C@H](CN(C)C)CC1
Procedure, shortened: as §1

ralimetinib = compound: CC(C)(C)Cn1c(N)nc2ccc(-c3[nH]c(C(C)(C)C)nc3-c3ccc(F)cc3)nc21 [ralimetinib]
Procedure, shortened: as §1

[10] = compound: CC(C)(O)CC(=O)NCCn1ccc2ncnc(Nc3ccc(Oc4cccc(C(F)(F)F)c4)c(Cl)c3)c21
Procedure, shortened: as §1

[11] = compound: CC(C)C1=C2N=C(C=C(N2N=C1)NCC3=CC=CC=C3)NCCCCCCN
Procedure, shortened: as §1

[12] = compound: CC1=C(C(CC(=O)N1)C2=CC=C(C=C2)C(F)(F)F)C(=O)NC3=C(C=C4C(=C3)C=NN4)F
Procedure, shortened: as §1

[13] = compound: CC1=C(C2=C(C=C1)C(=O)C3=CC=CC=C3N2CCCN)C
Procedure, shortened: as §1

[14] = compound: CC1=C(C=C(C=C1)NC(=O)C2=CC(=CC=C2)C(C)(C)C#N)NC3=CC4=C(C=C3)N=CN(C4=O)C
Procedure, shortened: as §1

[15] = compound: CC1=C(C=C(C=C1)NC(=O)C2=CC(=CC=C2)N(C)C)NC(=O)C3=CC=C(C=C3)O
Procedure, shortened: as §1

[16] = compound: CC1=CC=C(C=C1)SC2=C3C=C(SC3=CN=C2)C(=O)N
Procedure, shortened: as §1

Measured: log2 fold change

LIN37 (UniProt Q96GY3)
inactive: erlotinib 0.09 | [1] -0.261 | [2] 0.102 | [3] -0.234 | [4] 0.027 | [5] 0.008 | [6] 0.025 | [7] 0.093 | [8] 0.066 | IRAK-1-4 Inhibitor I -0.007 | ibrutinib -0.042 | [9] 0.045 | ralimetinib -0.094 | [10] 0.089 | [11] 0 | [12] 0.067 | [13] -0.114 | [14] 0.065 | [15] 0.036 | [16] -0.094

LRRC20 (UniProt Q8TCA0)
inactive: erlotinib 0.025 | [1] -0.08 | [2] -0.039 | [3] 0.053 | [4] 0.061 | [5] -0.005 | [6] 0.009 | [7] 0.007 | [8] 0.021 | IRAK-1-4 Inhibitor I 0.02 | ibrutinib -0.016 | [9] -0.013 | ralimetinib 0.007 | [10] 0.015 | [11] 0.024 | [12] -0.028 | [13] -0.046 | [14] 0.012 | [15] 0.028 | [16] 0.034

LSR (UniProt Q86X29)
inactive: erlotinib -0.045 | [1] -0.008 | [2] -0.04 | [3] 0.032 | [4] -0.048 | [5] -0.057 | [6] -0.009 | [7] 0.038 | [8] -0.001 | IRAK-1-4 Inhibitor I -0.034 | ibrutinib 0.038 | [9] -0.012 | ralimetinib 0.026 | [10] 0.062 | [11] 0.003 | [12] 0.036 | [13] 0.039 | [14] 0.029 | [15] -0.031 | [16] 0.021

LCMT1 (UniProt Q9UIC8)
inactive: erlotinib 0.004 | [1] 0.019 | [2] 0.038 | [3] -0.034 | [4] -0.002 | [5] -0.018 | [6] 0.017 | [7] -0.007 | [8] -0.007 | IRAK-1-4 Inhibitor I 0.023 | ibrutinib 0.004 | [9] 0.021 | ralimetinib 0.054 | [10] 0.006 | [11] -0.017 | [12] -0.01 | [13] 0.034 | [14] 0.011 | [15] 0.012 | [16] -0.002

LNPK (UniProt Q9C0E8)
inactive: erlotinib -0.008 | [1] -0.037 | [2] 0.02 | [3] -0.036 | [4] -0.032 | [5] -0.004 | [6] -0.053 | [7] 0.011 | [8] 0.036 | IRAK-1-4 Inhibitor I 0 | ibrutinib -0.033 | [9] 0 | ralimetinib -0.008 | [10] 0.04 | [11] 0.007 | [12] 0.023 | [13] -0.013 | [14] -0.001 | [15] -0.018 | [16] -0.016

LMNB1 (UniProt P20700)
inactive: erlotinib -0.029 | [1] 0.019 | [2] -0.032 | [3] -0.019 | [4] -0.032 | [5] 0.016 | [6] 0.008 | [7] -0.01 | [8] -0.009 | IRAK-1-4 Inhibitor I -0.036 | ibrutinib 0.031 | [9] -0.008 | ralimetinib -0.016 | [10] 0.026 | [11] -0.006 | [12] 0.005 | [13] -0.019 | [14] 0.007 | [15] -0.038 | [16] -0.013

LRCH3 (UniProt Q96II8)
inactive: erlotinib 0.043 | [1] 0.047 | [2] 0.021 | [3] -0.013 | [4] 0.001 | [5] 0 | [6] -0.053 | [7] -0.102 | [8] -0.014 | IRAK-1-4 Inhibitor I 0.028 | ibrutinib -0.052 | [9] -0.016 | ralimetinib -0.004 | [10] -0.017 | [11] 0.015 | [12] -0.015 | [13] -0.025 | [14] 0.047 | [15] 0.07 | [16] 0.034

2 neighbouring entries from above, quoted:
LRRC20 (UniProt Q8TCA0)
inactive: erlotinib 0.025 | [1] -0.08 | [2] -0.039 | [3] 0.053 | [4] 0.061 | [5] -0.005 | [6] 0.009 | [7] 0.007 | [8] 0.021 | IRAK-1-4 Inhibitor I 0.02 | ibrutinib -0.016 | [9] -0.013 | ralimetinib 0.007 | [10] 0.015 | [11] 0.024 | [12] -0.028 | [13] -0.046 | [14] 0.012 | [15] 0.028 | [16] 0.034

LSR (UniProt Q86X29)
inactive: erlotinib -0.045 | [1] -0.008 | [2] -0.04 | [3] 0.032 | [4] -0.048 | [5] -0.057 | [6] -0.009 | [7] 0.038 | [8] -0.001 | IRAK-1-4 Inhibitor I -0.034 | ibrutinib 0.038 | [9] -0.012 | ralimetinib 0.026 | [10] 0.062 | [11] 0.003 | [12] 0.036 | [13] 0.039 | [14] 0.029 | [15] -0.031 | [16] 0.021

Remaining list, next part.

LHPP (UniProt Q9H008)
inactive: erlotinib -0.024 | [1] -0.188 | [2] -0.005 | [3] -0.013 | [4] -0.021 | [5] -0.02 | [6] -0.084 | [7] 0.031 | [8] 0.092 | IRAK-1-4 Inhibitor I -0.012 | ibrutinib -0.013 | [9] -0.02 | ralimetinib -0.004 | [10] -0.013 | [11] -0.005 | [12] 0.011 | [13] 0.005 | [14] 0.024 | [15] -0.016 | [16] -0.009
